In test [1] the target is T1, Fip1_(226) (Fip1 residues 1–226), purified from E. coli (yeast) (UniProt P45976).
T1 sequence: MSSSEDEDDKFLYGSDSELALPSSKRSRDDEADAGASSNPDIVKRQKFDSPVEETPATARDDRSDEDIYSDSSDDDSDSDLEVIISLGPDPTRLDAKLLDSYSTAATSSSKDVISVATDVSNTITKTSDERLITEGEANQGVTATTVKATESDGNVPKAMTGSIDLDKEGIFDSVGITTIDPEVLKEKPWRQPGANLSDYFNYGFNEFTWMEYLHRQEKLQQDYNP
The test can be described thus: NMR titration; labelled Fip1_(226) with unlabelled Yth1ZF4, Pap1, or both together; chemical shift perturbations and line broadening (1H,15N HSQC; 13C-detect CON); 278 K, 50 mM HEPES (pH 7.4), 150 mM NaCl; both purified.

By UniProt entry, the sequences of proteins in these tests, tags left out. Where a name states a change or a piece, a line headed by the entry shows the natural chain unless it says otherwise.
UniProt Q06102: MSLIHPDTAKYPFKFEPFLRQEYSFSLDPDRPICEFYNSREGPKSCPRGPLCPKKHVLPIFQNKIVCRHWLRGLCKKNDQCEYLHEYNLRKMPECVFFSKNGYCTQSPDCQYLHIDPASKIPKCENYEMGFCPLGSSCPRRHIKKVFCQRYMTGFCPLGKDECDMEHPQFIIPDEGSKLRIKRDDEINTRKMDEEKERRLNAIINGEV

In test [2] the target is Yth1ZF4 (Yth1 zinc finger 4) (yeast) (UniProt Q06102). Nature of the test: NMR titration; 15N-labelled Yth1 construct with unlabelled Fip1_(226), equimolar, 75 µM; chemical shift perturbations and line broadening; 700 MHz, 298 K, 50 mM HEPES (pH 7.4), 150 mM NaCl; both purified.
A further test deals with Yth1_(ΔZF5C) (yeast). The test can be described thus: pull-down; StrepII (SII) tag on Pfs2 as bait; polymerase module subunits co-expressed in Sf9 cells; clarified lysate on Streptactin resin, 4°C; eluate analysed by SDS-PAGE.

These are yes or no findings as the source states them, for the method shown. Binding can be weak; no strength is given. For part of these data: In cells and extracts the contact can be indirect.

“Yth1ZF4 (Yth1 zinc finger 4) (from UniProt Q06102) (domain or fragment)”: in test [1], the binding result was “binds”.

B1: Fip1_(226) (Fip1 residues 1–226), purified from E. coli (domain or fragment, yeast, UniProt P45976 1-226, looked up)
chain: MSSSEDEDDKFLYGSDSELALPSSKRSRDDEADAGASSNPDIVKRQKFDSPVEETPATARDDRSDEDIYSDSSDDDSDSDLEVIISLGPDPTRLDAKLLDSYSTAATSSSKDVISVATDVSNTITKTSDERLITEGEANQGVTATTVKATESDGNVPKAMTGSIDLDKEGIFDSVGITTIDPEVLKEKPWRQPGANLSDYFNYGFNEFTWMEYLHRQEKLQQDYNP
notes: Isotopically labelled (15N, 13C, 2H) where it is the observed species in NMR; cloned in pET28a+; also called Fip226; source: E. coli BL21 Star, purified (Ni-NTA, TEV cleavage, Superdex 75); not shown: His tag, N-terminal, cleaved
For the molecule B1, the binding result in test [2] is on record as “binds”.

B2: Fip1 (protein, UniProt P45976 1-327)
chain: MSSSEDEDDKFLYGSDSELALPSSKRSRDDEADAGASSNPDIVKRQKFDSPVEETPATARDDRSDEDIYSDSSDDDSDSDLEVIISLGPDPTRLDAKLLDSYSTAATSSSKDVISVATDVSNTITKTSDERLITEGEANQGVTATTVKATESDGNVPKAMTGSIDLDKEGIFDSVGITTIDPEVLKEKPWRQPGANLSDYFNYGFNEFTWMEYLHRQEKLQQDYNPRRILMGLLSLQQQGKLNSANDTDSNLGNIIDNNNNVNNANMSNLNSNMGNSMSGTPNPPAPPMHPSFPPLPMFGSFPPFPMPGMMPPMNQQPNQNQNQNSK
As to B2, the binding entry with Yth1_(ΔZF5C) (yeast) is “binds”.

Source of the values: publication PMC8559680, “Dynamics in Fip1 regulate eukaryotic mRNA 3′ end processing” (Genes & Development, 2021).
